The list does not hold the whole screen: it is rich in T/C values a quarter to a half above the control, in often repeated tests (any T/C) and in doses without a T/C. Further doses and runs are listed elsewhere. T/C gives the treated animals as a percentage of the vehicle group. Some entries give survivors of the animals treated and no T/C: the source files T/C as zero there, which appears to mark a toxic dose or a test without result, not a measured value. Some survivor counts are full or nearly so, which does not show that the dose was tolerated: the source hardly ever lists a survival T/C far under the control, and the zero likely stands for such cases as well. Survivors were counted at the toxicity check, usually on the fifth day, unless a day is given; later deaths do not show. Schedules are NCI's codes, read here as Q, the interval in days (D) or hours (H), X, the number of doses. Some entries hold several experiments; the results are listed from low to high. For survival time, this PubChem deposit counts one and a half times the control or more as active, and values a quarter to a half above the control carry no call in these data; other NCI protocols may use other cut-offs. Some T/C values carry the count of animals alive at the toxicity check (mostly the fifth day); without a count, all were alive then. Brackets with × say how often a value occurs here.
Test system: P388 leukemia ip, CD2F1 mice, survival T/C
Assay: NCI In Vivo Anticancer Drug Screen. Data for tumor model P388 Leukemia (intraperitoneal) in CD2F1 (CDF1) mice
Conditions: T/C endpoint: median survival time, higher T/C = longer survival
[1] = dose: 50.0 mg/kg/injection, schedule: Q01DX009 (ip), vehicle: Klucel (hydroxypropylcellulose) (HPC)
[2] = dose: 50.0 mg/kg/injection, schedule: Q04DX002 (ip), vehicle: Klucel (hydroxypropylcellulose) (HPC)
[3] = dose: 50.0 mg/kg/injection, schedule: Q04DX003 (ip), vehicle: Klucel (hydroxypropylcellulose) (HPC)
[4] = dose: 100.0 mg/kg/injection, schedule: Q01DX009 (ip), vehicle: Klucel (hydroxypropylcellulose) (HPC)
[5] = dose: 100.0 mg/kg/injection, schedule: Q04DX003 (ip), vehicle: Klucel (hydroxypropylcellulose) (HPC)
[6] = dose: 200.0 mg/kg/injection, schedule: Q01DX001 (ip), vehicle: Klucel (hydroxypropylcellulose) (HPC)
[7] = dose: 200.0 mg/kg/injection, schedule: Q01DX009 (ip), vehicle: Klucel (hydroxypropylcellulose) (HPC)
[8] = dose: 200.0 mg/kg/injection, schedule: Q04DX002 (ip), vehicle: Klucel (hydroxypropylcellulose) (HPC)
[9] = dose: 200.0 mg/kg/injection, schedule: Q04DX003 (ip), vehicle: Klucel (hydroxypropylcellulose) (HPC)
[10] = dose: 400.0 mg/kg/injection, schedule: Q01DX009 (ip), vehicle: Klucel (hydroxypropylcellulose) (HPC)
[11] = dose: 400.0 mg/kg/injection, schedule: Q04DX002 (ip), vehicle: Klucel (hydroxypropylcellulose) (HPC)
[12] = dose: 400.0 mg/kg/injection, schedule: Q04DX003 (ip), vehicle: Klucel (hydroxypropylcellulose) (HPC)

## C[C@]12C=CC(=O)C=C1CC[C@@H]1[C@@H]2C(=O)C[C@@]2(C)[C@H]1CC[C@]2(O)C(=O)CO
dose: 50.0 mg/kg/injection, schedule: Q01DX001 (ip), vehicle: Klucel (hydroxypropylcellulose) (HPC)
  T/C: 89, 97, 100 (4×), 101 (3×), 102 (2×), 103, 104 (3×), 105 (3×), 105 [5 of 6 alive], 106 (2×), 107 (2×), 109 (3×), 110, 113 (2×), 114, 125, 139 % of control
dose: 50.0 mg/kg/injection, schedule: Q01DX005 (ip), vehicle: Klucel (hydroxypropylcellulose) (HPC), evaluated on day 30
  T/C: 92, 93, 95, 97, 99, 100 (4×), 101, 103 (2×), 104, 105 (3×), 106 (3×), 107 (2×), 108 (2×), 109 (2×), 110, 111 (3×), 112, 112 [2 of 3 alive], 114, 115, 117, 119 % of control
dose: 50.0 mg/kg/injection, schedule: Q01DX005 (ip), vehicle: Klucel (hydroxypropylcellulose) (HPC), evaluated on day 60
  T/C: 99 % of control
dose: 50.0 mg/kg/injection, schedule: Q01DX005 (ip), vehicle: Klucel (hydroxypropylcellulose) (HPC)
  survivor count: 3 of 6
[1]
  T/C: 89, 93, 95 (3×), 96 (2×), 98, 99 (2×), 100, 101 (2×), 102, 103 (2×), 104 (2×), 105, 106 (2×), 107, 109, 110, 110 [5 of 6 alive], 112 (3×), 116, 120, 122 % of control (2×)
  survivor count: 3 of 3 and 6 of 6
[2]
  T/C: 91 (2×), 92, 94, 97 (2×), 98, 99 (2×), 100 (2×), 101 (2×), 102, 102 [2 of 3 alive], 103 (2×), 104, 105, 106, 106 [2 of 3 alive], 108 (3×), 109, 111 [5 of 6 alive], 112 [2 of 2 alive], 113, 114, 116, 117 (2×), 123, 126 % of control
  survivor count: 6 of 6
[3]
  T/C: 97 (2×), 98 (2×), 100 (5×), 103 (3×), 104 (5×), 105 (3×), 108 (2×), 109 (2×), 110 (3×), 112, 113, 114, 115 (2×), 116, 118 % of control
  survivor count: 3 of 3 and 6 of 6
dose: 100.0 mg/kg/injection, schedule: Q01DX001 (ip), vehicle: Klucel (hydroxypropylcellulose) (HPC)
  T/C: 86 (2×), 95, 98, 100 (3×), 101, 103 (2×), 104 (2×), 105, 106 (4×), 107 (2×), 109 (2×), 110 (3×), 112, 113 (3×), 114 (2×), 117, 125 % of control
dose: 100.0 mg/kg/injection, schedule: Q01DX005 (ip), vehicle: Klucel (hydroxypropylcellulose) (HPC), evaluated on day 30
  T/C: 87 (2×), 92, 93, 100 (3×), 101, 102 (2×), 103, 104, 105 (2×), 106, 107 (3×), 108, 109 (2×), 110, 110 [5 of 6 alive], 111 (3×), 112, 116, 117 (3×), 122 % of control
dose: 100.0 mg/kg/injection, schedule: Q01DX005 (ip), vehicle: Klucel (hydroxypropylcellulose) (HPC), evaluated on day 60
  T/C: 100 % of control
dose: 100.0 mg/kg/injection, schedule: Q01DX005 (ip), vehicle: Klucel (hydroxypropylcellulose) (HPC)
  survivor count: 0 of 6, 3 of 3, 6 of 6
[4]
  T/C: 89, 90, 91, 93 (2×), 94 (3×), 95, 96, 98, 98 [5 of 6 alive], 100 (2×), 101, 102 (2×), 104, 106 (2×), 108 (3×), 109, 111, 117 (2×), 118 % of control [5 of 6 alive]
  survivor count: 4 of 6, 5 of 6, 3 of 3, 6 of 6
dose: 100.0 mg/kg/injection, schedule: Q04DX002 (ip), vehicle: Klucel (hydroxypropylcellulose) (HPC)
  T/C: 88, 89, 91, 97 (2×), 98, 99, 100 (3×), 101, 102 (2×), 103 (4×), 104 (3×), 105, 106, 107 (2×), 108 (2×), 110 (2×), 113, 114 (2×), 115, 116, 118, 122 % of control
[5]
  T/C: 96, 99, 100 (4×), 101, 103 (3×), 104 (4×), 105 (4×), 106 (4×), 107 (2×), 109 (2×), 110, 111, 112, 113, 115, 116, 117, 118, 120 % of control
  survivor count: 3 of 3 and 6 of 6
[6]
  T/C: 92, 96, 98, 99 (3×), 100 (2×), 102, 103, 104 (3×), 105, 107 (2×), 109 (5×), 111, 112 (2×), 113 (3×), 114, 117, 119, 120 % of control
  survivor count: 6 of 6
dose: 200.0 mg/kg/injection, schedule: Q01DX005 (ip), vehicle: Klucel (hydroxypropylcellulose) (HPC), evaluated on day 30
  T/C: 86 [5 of 6 alive], 89, 92, 95, 97 (2×), 98 (2×), 102, 103, 106, 107 (3×), 108 (2×), 109, 110, 111 (4×), 112 (4×), 114, 115 % of control
dose: 200.0 mg/kg/injection, schedule: Q01DX005 (ip), vehicle: Klucel (hydroxypropylcellulose) (HPC), evaluated on day 60
  T/C: 104 % of control
dose: 200.0 mg/kg/injection, schedule: Q01DX005 (ip), vehicle: Klucel (hydroxypropylcellulose) (HPC)
  survivor count: 2 of 3, 4 of 6, 5 of 6, 3 of 3, 6 of 6
[7]
  T/C: 86 (3×), 89, 90, 90 [5 of 6 alive], 91, 95, 96 [2 of 3 alive], 96 [5 of 6 alive], 98, 100, 101, 103, 105, 106, 108 (3×), 109, 117 % of control (2×)
  survivor count: 2 of 3, 3 of 3, 6 of 6
[8]
  T/C: 87, 88 (2×), 94, 97, 100 (5×), 102 (2×), 103 (3×), 104, 105, 106 (2×), 107 (3×), 108 (4×), 111, 112, 115 (2×), 116 % of control (2×)
  survivor count: 3 of 3 and 6 of 6
[9]
  T/C: 89, 95 (2×), 96 (2×), 98, 99, 100 (4×), 103 (4×), 104 (2×), 106, 107, 109 (3×), 110 (2×), 111 (5×), 115, 117, 119, 120, 121, 125 % of control
  survivor count: 3 of 3 and 6 of 6
dose: 400.0 mg/kg/injection, schedule: Q01DX001 (ip), vehicle: Klucel (hydroxypropylcellulose) (HPC)
  T/C: 88, 97, 100, 101 (2×), 102, 103 (3×), 104 (3×), 105 (2×), 106, 107 (4×), 108, 109 (3×), 111, 112, 114 (2×), 115 (2×), 118, 123 % of control (2×)
dose: 400.0 mg/kg/injection, schedule: Q01DX005 (ip), vehicle: Klucel (hydroxypropylcellulose) (HPC), evaluated on day 30
  T/C: 86 (2×), 87, 89 [5 of 6 alive], 92, 93 (2×), 94, 97, 97 [5 of 6 alive], 99 (2×), 100 (3×), 102, 103, 104, 105 (2×), 106, 108, 110, 114, 120, 122, 125, 132 % of control
dose: 400.0 mg/kg/injection, schedule: Q01DX005 (ip), vehicle: Klucel (hydroxypropylcellulose) (HPC), evaluated on day 60
  T/C: 102 % of control
dose: 400.0 mg/kg/injection, schedule: Q01DX005 (ip), vehicle: Klucel (hydroxypropylcellulose) (HPC)
  survivor count: 3 of 6, 3 of 3, 6 of 6
[10]
  T/C: 86 (2×), 87 (2×), 87 [5 of 6 alive], 89, 90, 91 (2×), 92, 93, 98 (2×), 99, 100 (3×), 101, 103, 104, 122 % of control
  survivor count: 5 of 6, 3 of 3, 6 of 6
[11]
  T/C: 86 [4 of 6 alive], 87, 89, 94, 97, 99, 100 (3×), 102, 103 (5×), 104 (3×), 104 [2 of 3 alive], 106, 107 (2×), 108 (3×), 109, 111, 112, 116 [2 of 3 alive], 119, 120, 125, 126 % of control
  survivor count: 6 of 6
[12]
  T/C: 88, 90, 91, 93, 94, 97 (3×), 99 (2×), 100 (3×), 101 (2×), 102, 102 [5 of 6 alive], 103, 104 (2×), 105, 106, 107 (4×), 109, 111, 116, 117, 118, 119, 122, 128 % of control
  survivor count: 3 of 3 and 6 of 6
dose: 1000.0 mg/kg/injection, schedule: Q01DX001 (ip), vehicle: steroid suspending solution
  survivor count: 0 of 10
dose: 3200.0 mg/kg/injection, schedule: Q01DX005 (ip), vehicle: Klucel (hydroxypropylcellulose) (HPC)
  survivor count: 9 of 10
dose: 3200.0 mg/kg/injection, schedule: Q01DX005 (sc), vehicle: Klucel (hydroxypropylcellulose) (HPC)
  survivor count: 10 of 10
dose: 6400.0 mg/kg/injection, schedule: Q01DX005 (ip), vehicle: Klucel (hydroxypropylcellulose) (HPC)
  survivor count: 9 of 10

— PubChem BioAssay AID330 (DTP/NCI, 2004)
